# The supplement of paper PMC8728848
# The other results are listed elsewhere or left out.
# Legend:
# Test in all cases: glycan array binding signal (z-score within array); higher = stronger binding
# Conditions in all cases: glycan notation: IUPAC condensed, linker removed
# [1] = biological target: Neu5Ac(a2-3)Gal(b1-4)[Fuc(a1-3)]GlcNAc(b1-3)Gal
# How it was run: (§1)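 Columns mapping to the same glycan were averaged after glycan names were converted to IUPAC-condensed notation. The data come from 3228 arrays in the Consortium for Functional Glycomics database, limited to those with an available protein sequence. Binding is reported as a within-array Z-score averaged across arrays of one protein sequence and across linkers.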
# [2] = biological target: Neu5Ac(a2-3)Gal(b1-4)[Fuc(a1-3)]GlcNAc(b1-3)Gal(b1-4)GlcNAc
# How it was run: as §1
# [3] = biological target: Neu5Ac(a2-3)Gal(b1-4)[Fuc(a1-3)]GlcNAc(b1-3)Gal(b1-4)[Fuc(a1-3)]GlcNAc(b1-3)Gal(b1-4)[Fuc(a1-3)]GlcNAc
# How it was run: as §1
# [4] = biological target: Neu5Ac(a2-3)Gal(b1-4)[Fuc(a1-3)]GlcNAc(b1-3)GalNAc
# How it was run: as §1
# [5] = biological target: Neu5Ac(a2-3)Gal(b1-4)[Fuc(a1-3)]GlcNAc(b1-6)[Gal(b1-3)]GalNAc
# How it was run: as §1
# [6] = biological target: Neu5Ac(a2-3)Gal(b1-4)[Fuc(a1-3)]GlcNAc(b1-6)[Neu5Ac(a2-3)Gal(b1-3)]GalNAc
# How it was run: as §1
# [7] = biological target: Neu5Ac(a2-3)Gal(b1-4)[Fuc(a1-3)]GlcNAc6S
# How it was run: as §1
# [8] = biological target: Neu5Ac(a2-3)Gal6S(b1-4)GlcNAc
# How it was run: as §1
# [9] = biological target: Neu5Ac(a2-3)Gal6S(b1-4)[Fuc(a1-3)]GlcNAc
# How it was run: as §1
# Neu5Ac(a2-3)GalNAc = biological target: Neu5Ac(a2-3)GalNAc
# How it was run: as §1
# [10] = biological target: Neu5Ac(a2-3)GalNAc(b1-4)GlcNAc
# How it was run: as §1
# [11] = biological target: Neu5Ac(a2-3)[GalNAc(b1-4)]Gal(b1-4)Glc
# How it was run: as §1
# [12] = biological target: Neu5Ac(a2-3)[GalNAc(b1-4)]Gal(b1-4)GlcNAc
# How it was run: as §1
# [13] = biological target: Neu5Ac(a2-3)[GalNAc(b1-4)]Gal(b1-4)GlcNAc(b1-3)GalNAc
# How it was run: as §1
# [14] = biological target: Neu5Ac(a2-3)[Neu5Ac(a2-6)]GalNAc
# How it was run: as §1
# Neu5Ac(a2-6)Gal = biological target: Neu5Ac(a2-6)Gal
# How it was run: as §1
# Neu5Ac(a2-6)Gal(b1-4)Glc = biological target: Neu5Ac(a2-6)Gal(b1-4)Glc
# How it was run: as §1
# [15] = biological target: Neu5Ac(a2-6)Gal(b1-4)GlcNAc
# How it was run: as §1
# [16] = biological target: Neu5Ac(a2-6)Gal(b1-4)GlcNAc(b1-2)Man(a1-3)Man(b1-4)GlcNAc(b1-4)GlcNAc
# How it was run: as §1
# [17] = biological target: Neu5Ac(a2-6)Gal(b1-4)GlcNAc(b1-2)Man(a1-3)[Gal(b1-4)GlcNAc(b1-2)Man(a1-6)]Man(b1-4)GlcNAc(b1-4)GlcNAc
# How it was run: as §1
# [18] = biological target: Neu5Ac(a2-6)Gal(b1-4)GlcNAc(b1-2)Man(a1-3)[GlcNAc(b1-2)Man(a1-6)]Man(b1-4)GlcNAc(b1-4)GlcNAc
# How it was run: as §1
# [19] = biological target: Neu5Ac(a2-6)Gal(b1-4)GlcNAc(b1-2)Man(a1-3)[GlcNAc(b1-2)Man(b1-4)GlcNAc(b1-2)Man(a1-6)]Man(b1-4)GlcNAc(b1-4)GlcNAc
# How it was run: as §1
# [20] = biological target: Neu5Ac(a2-6)Gal(b1-4)GlcNAc(b1-2)Man(a1-3)[Man(a1-6)]Man(b1-4)GlcNAc(b1-4)GlcNAc
# How it was run: as §1
# [21] = biological target: Neu5Ac(a2-6)Gal(b1-4)GlcNAc(b1-2)Man(a1-3)[Neu5Ac(a2-6)Gal(b1-4)GlcNAc(b1-2)Man(a1-6)]Man(b1-4)GlcNAc(b1-4)GlcNAc
# How it was run: as §1
# [22] = biological target: Neu5Ac(a2-6)Gal(b1-4)GlcNAc(b1-2)Man(a1-6)Man(b1-4)GlcNAc(b1-4)GlcNAc
# How it was run: as §1
# [23] = biological target: Neu5Ac(a2-6)Gal(b1-4)GlcNAc(b1-2)Man(a1-6)[Gal(b1-4)GlcNAc(b1-2)Man(a1-3)]Man(b1-4)GlcNAc(b1-4)GlcNAc
# How it was run: as §1
# [24] = biological target: Neu5Ac(a2-6)Gal(b1-4)GlcNAc(b1-2)Man(a1-6)[GlcNAc(b1-2)Man(a1-3)]Man(b1-4)GlcNAc(b1-4)GlcNAc
# How it was run: as §1
# [25] = biological target: Neu5Ac(a2-6)Gal(b1-4)GlcNAc(b1-2)Man(a1-6)[Man(a1-3)]Man(b1-4)GlcNAc(b1-4)GlcNAc
# How it was run: as §1
# [26] = biological target: Neu5Ac(a2-6)Gal(b1-4)GlcNAc(b1-3)Gal(b1-3)GlcNAc
# How it was run: as §1
# [27] = biological target: Neu5Ac(a2-6)Gal(b1-4)GlcNAc(b1-3)Gal(b1-4)GlcNAc
# How it was run: as §1
# [28] = biological target: Neu5Ac(a2-6)Gal(b1-4)GlcNAc(b1-3)Gal(b1-4)GlcNAc(b1-3)Gal(b1-4)GlcNAc
# How it was run: as §1
# [29] = biological target: Neu5Ac(a2-6)Gal(b1-4)GlcNAc(b1-3)Gal(b1-4)[Fuc(a1-3)]GlcNAc(b1-3)Gal(b1-4)[Fuc(a1-3)]GlcNAc
# How it was run: as §1
# [30] = biological target: Neu5Ac(a2-6)Gal(b1-4)GlcNAc(b1-3)GalNAc
# How it was run: as §1
# [31] = biological target: Neu5Ac(a2-6)Gal(b1-4)GlcNAc6S
# How it was run: as §1
# Neu5Ac(a2-6)GalNAc = biological target: Neu5Ac(a2-6)GalNAc
# How it was run: as §1
# [32] = biological target: Neu5Ac(a2-6)GalNAc(b1-4)GlcNAc
# How it was run: as §1
# [33] = biological target: Neu5Ac(a2-6)GlcNAc(b1-4)GlcNAc
# How it was run: as §1
# [34] = biological target: Neu5Ac(a2-6)GlcNAc(b1-4)GlcNAc(b1-4)GlcNAc
# How it was run: as §1
binder,measurement,setting,value
"SAG1 (Toxoplasma gondii), P13664 (protein) MSVSLHHFIISSGFLTSMFPKAVRRAVTAGVFAAPTLMSFLRCGVMASDPPLVANQVVTCPDKKSTAAVILTPTENHFTLKCPKTALTEPPTLAYSPNRQICPAGTTSSCTSKAVTLSSLIPEAEDSWWTGDSASLDTAGIKLTVPIEKFPVTTQTFVVGCIKGDDAQSCMVTVTVQARASSVVNNVARCSYGADSTLGPVKLSAEGPTTMTLVCGKDGVKVPQDNNQYCSGTTLTGCNEKSFKDILPKLTENPWQGNASSDKGATLTIKKEAFPAESKSVIIGCTGGSPEKHHCTVKLEFAGAAGSAKSAAGTASHVSIFAMVIGLIGSIAACVA",glycan array binding signal (z-score),[1],-0.563
same,glycan array binding signal (z-score),[2],0.518
same,glycan array binding signal (z-score),[3],-0.556
same,glycan array binding signal (z-score),[4],3.63
same,glycan array binding signal (z-score),[5],0.154
same,glycan array binding signal (z-score),[6],0.331
same,glycan array binding signal (z-score),[7],-0.651
same,glycan array binding signal (z-score),[8],-0.584
same,glycan array binding signal (z-score),[9],0.117
same,glycan array binding signal (z-score),Neu5Ac(a2-3)GalNAc,-0.306
same,glycan array binding signal (z-score),[10],-0.667
same,glycan array binding signal (z-score),[11],-0.532
same,glycan array binding signal (z-score),[12],0.393
same,glycan array binding signal (z-score),[13],0.302
same,glycan array binding signal (z-score),[14],-0.35
same,glycan array binding signal (z-score),Neu5Ac(a2-6)Gal,-0.051
same,glycan array binding signal (z-score),Neu5Ac(a2-6)Gal(b1-4)Glc,-0.146
same,glycan array binding signal (z-score),[15],-0.366
same,glycan array binding signal (z-score),[16],0.755
same,glycan array binding signal (z-score),[17],0.036
same,glycan array binding signal (z-score),[18],0.059
same,glycan array binding signal (z-score),[19],0.028
same,glycan array binding signal (z-score),[20],0.662
same,glycan array binding signal (z-score),[21],0.147
same,glycan array binding signal (z-score),[22],0.715
same,glycan array binding signal (z-score),[23],0.025
same,glycan array binding signal (z-score),[24],-0.2
same,glycan array binding signal (z-score),[25],0.386
same,glycan array binding signal (z-score),[26],-0.009
same,glycan array binding signal (z-score),[27],-0.56
same,glycan array binding signal (z-score),[28],-0.039
same,glycan array binding signal (z-score),[29],1.11
same,glycan array binding signal (z-score),[30],-0.209
same,glycan array binding signal (z-score),[31],0.07
same,glycan array binding signal (z-score),Neu5Ac(a2-6)GalNAc,-0.03
same,glycan array binding signal (z-score),[32],-0.481
same,glycan array binding signal (z-score),[33],0.574
same,glycan array binding signal (z-score),[34],-0.384

# Two neighbouring records out of the list so far, for reference:
binder,measurement,setting,value
"SAG1 (Toxoplasma gondii), P13664 (protein) MSVSLHHFIISSGFLTSMFPKAVRRAVTAGVFAAPTLMSFLRCGVMASDPPLVANQVVTCPDKKSTAAVILTPTENHFTLKCPKTALTEPPTLAYSPNRQICPAGTTSSCTSKAVTLSSLIPEAEDSWWTGDSASLDTAGIKLTVPIEKFPVTTQTFVVGCIKGDDAQSCMVTVTVQARASSVVNNVARCSYGADSTLGPVKLSAEGPTTMTLVCGKDGVKVPQDNNQYCSGTTLTGCNEKSFKDILPKLTENPWQGNASSDKGATLTIKKEAFPAESKSVIIGCTGGSPEKHHCTVKLEFAGAAGSAKSAAGTASHVSIFAMVIGLIGSIAACVA",glycan array binding signal (z-score),[33],0.574
same,glycan array binding signal (z-score),[34],-0.384
